Source: PMC12656381
For at least one entry, the source does not settle the construct or the ends of the probe. At least one result comes from cells or an extract, where the contact may be indirect. For some assays here: A negative result means that nothing was seen under these conditions. Tags and fusion partners may be left off the protein sequences shown.

Legend:
[1] = target: T1, PS (psNTP9, pea apyrase) (Pisum sativum (pea)) (UniProt P52914); experiment: competition with a labelled probe; settings: EMSA: 10 mM Tris pH 7.5, 50 mM KCl, 1 mM DTT, 1 ug/uL poly dI-dC, 20 uL, 200 ng protein, room temperature 20-30 min, 6% native PAGE, 0.5x TBE, protein in a lysate after overexpression
T1 sequence (looked up, limits assumed): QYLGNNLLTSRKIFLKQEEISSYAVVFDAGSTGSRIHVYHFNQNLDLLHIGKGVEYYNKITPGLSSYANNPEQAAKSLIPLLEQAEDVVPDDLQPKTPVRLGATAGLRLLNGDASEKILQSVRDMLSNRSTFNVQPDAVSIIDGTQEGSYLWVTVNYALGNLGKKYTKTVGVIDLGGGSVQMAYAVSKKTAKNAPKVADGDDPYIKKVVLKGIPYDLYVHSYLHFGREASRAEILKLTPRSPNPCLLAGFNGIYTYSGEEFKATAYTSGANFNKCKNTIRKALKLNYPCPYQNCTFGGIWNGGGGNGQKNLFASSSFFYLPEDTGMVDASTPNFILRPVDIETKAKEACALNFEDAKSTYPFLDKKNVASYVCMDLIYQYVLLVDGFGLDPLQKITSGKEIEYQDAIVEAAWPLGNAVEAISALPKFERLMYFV

[2] = target: T1, PS (psNTP9, pea apyrase) (Pisum sativum (pea)); experiment: EMSA; settings: poly dI-dC, EMSA: 10 mM Tris pH 7.5, 50 mM KCl, 1 mM DTT, 1 ug/uL poly dI-dC, 20 uL, 200 ng protein, room temperature 20-30 min, 6% native PAGE, 0.5x TBE, protein in a lysate after overexpression
[3] = label: 3' biotin on both strands

| Sequence | binding result [2] | binding result [2, 3] | further results |
| --- | --- | --- | --- |
| AGTTATTTTAACTAATAAACAGATAAAAAGAAATAAAAAGTACTAAATTGGTAAATTATCGTAGTATCAT (double strand) [WRKY42 test] | binds | – | binding result ([1]; 200-fold excess unlabeled WRKY42 reduces binding): binds |
| AGTTATTTTAACTAATAAACAGATAAAAAGAAATAGCCTACACTAAATTGGTAAATTATCGTAGTATCAT (double strand) [WRKY42 mutant] | – | no binding | – |
| ATAATGTTACGCAGTTCCGAGCTTCGCTGACACGTGGGAGGTGGGATATAATATTTGCACGGGTTC (double strand) [PHM6 test] | binds | – | binding result ([1]; 200-fold excess unlabeled PHM6 reduces binding): binds |
| TTCACTTTTCAACTTATCCCTCTCAATCCCCACCACCACCACTCTCTATTCCCTCATATAGATAGATCAT (double strand) [PER50 test] | binds | – | binding result ([1]; 200-fold excess unlabeled PER50 inhibits binding): binds |
| TTCACTTTTCAACTTATCCCTCTCAATCCCCAGTCCTATGACTCTCTATTCCCTCATATAGATAGATCAT (double strand) [PER50 mutant] | – | no binding | – |
